# Results are given in words; binding and its absence hold for the method and conditions named. Some results given as binding are weak or reduced against the parent protein; the word gives no strength. Sequences can lack the tags named with a protein.
# Biological target: MLT transposase of the present disclosure (Myotis lucifugus transposase, purified, MBP tag removed by TEV protease) (Myotis lucifugus (engineered: L573del, E574del, S2A))
# Experiment: Superdex 200 size exclusion chromatography of purified protein (self-association, homodimer)
binder,measurement,value
"MLT transposase of the present disclosure (Myotis lucifugus transposase, purified, MBP tag removed by TEV protease) (enzyme) MAQHSDYSDDEFCADKLSNYSCDSDLENASTSDEDSSDDEVMVRPRTLRRRRISSSSSDSESDIEGGREEWSHVDNPPVLEDFLGHQGLNTDAVINNIEDAVKLFIGDDFFEFLVEESNRYYNQNRNNFKLSKKSLKWKDITPQEMKKFLGLIVLMGQVRKDRRDDYWTTEPWTETPYFGKTMTRDRFRQIWKAWHFNNNADIVNESDRLCKVRPVLDYFVPKFINIYKPHQQLSLDEGIVPWRGRLFFRVYNAGKIVKYGILVRLLCESDTGYICNMEIYCGEGKRLLETIQTVVSPYTDSWYHIYMDNYYNSVANCEALMKNKFRICGTIRKNRGIPKDFQTISLKKGETKFIRKNDILLQVWQSKKPVYLISSIHSAEMEESQNIDRTSKKKIVKPNALIDYNKHMKGVDRADQYLSYYSILRRTVKWTKRLAMYMINCALFNSYAVYKSVRQRKMGFKMFLKQTAIHWLTDDIPEDMDIVPDLQPVPSTSGMRAKPPTSDPPCRLSMDMRKHTLQAIVGSGKKKNILRRCRVCSVHKLRSETRYMCKFCNIPLHKGACFEKYHTLKNY",binding,binds
